Measured values reported in PubChem BioAssay AID504467 (National Center for Advancing Translational Sciences (NCATS), 2011).
The whole screen tested about 330,000 compounds, of which about 7,700 (2.3%) were called active. Inconclusive results, whose numbers are uncertain, are shown with a selection of clear calls. Calls follow the shape of the dose curve; as a rule, active = well fitted inhibition curve with a large enough effect; inconclusive = small, poorly fitted or top-dose-only effect, or effect the other way; inactive = flat fitted curve, though single readings scatter. Potencies beside an inconclusive call are fits to weak or partial responses and may not hold up.

Test: qHTS screen for small molecules that inhibit ELG1-dependent DNA repair in human embryonic kidney (HEK293T) cells expressing luciferase-tagged ELG1; also: nearly all actives have a fitted effect of over 55% in size
Settings: HEK293T ELG1-luciferase reporter, luminescence, 16 h, DNA damage induced by 5-fluorouridine; series mostly up to 46.1 µM
Outline: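 Reporter activity after DNA damage by 5-fluorouridine is monitored. Compound-treated cells incubate 16 hr at 37 °C, then ONE-Glo is added for 30 min before luminescence reading.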
Potency is read from the fitted curve at half-maximal effect.

Row | Compound | Potency
1 | Cc1cnccc1NC(=O)c1cccs1 | inconclusive: 11.6 µM [inhibitor, partial curve, poor fit]
2 | CCOC(=O)c1sc(NC(=S)NC(=O)C23CC4CC(CC(C4)C2)C3)cc1C | inactive
3 | COc1ccccc1CCNC(=O)c1ccc(C)o1 | inconclusive: 16.4 µM [activator, partial curve, poor fit]
4 | CC(C)CC(COCc1cccc(Cl)c1)N1CCN(C(=O)c2cccc(C(F)(F)F)c2)CCC1=O (stereo not given) | inactive
5 | COc1ccc(-c2nnc(SCC(=O)Nc3ccccc3OC)o2)cc1 | inconclusive: 16.4 µM [activator, partial curve]
6 | c1ccc(-c2cn3c(n2)-c2ccccc2C3)cc1 | inconclusive: 0.58 µM [activator, full curve]
7 | CCC1S/C(=N/N=C/c2ccco2)N(Cc2ccccc2)C1=O (stereo not given) | inconclusive: 6.51 µM [inhibitor, single point]
8 | CCc1cc(Br)ccc1NC(=S)NCCc1ccccc1 | inconclusive: 29.1 µM [inhibitor, partial curve, poor fit]
9 | O=C(COC(=O)c1cccc(S(=O)(=O)N2CCOCC2)c1)Nc1nc(-c2ccccc2Cl)cs1 | inconclusive: 11.2 µM [activator, partial curve, poor fit]
10 | NS(=O)(=O)c1cccc(NC(=O)COc2ccc([N+](=O)[O-])cc2)c1 | inconclusive: 14.6 µM [activator, single point]
11 | CCOC(=O)C1=C(COC(=O)C2CC(=O)N(c3ccc(CC)cc3)C2)NC(=O)NC1C (stereo not given) | inactive
12 | Cc1ccc(/C=C2\CCC(C3CCCC3)C2=O)cc1 (stereo not given) | inconclusive: 11.6 µM [activator, partial curve]
13 | COc1ccc(OC)c2sc(NC(=O)C3=COCCO3)nc12 | inconclusive: 23.1 µM [activator, partial curve, poor fit]
14 | Cc1ccc(/C=C2\Oc3c(ccc(O)c3CN3CCN(C)CC3)C2=O)cc1 | inactive
15 | Cc1ccc(NC(=S)/N=C(\N)Nc2nc(C)c3cc(C)ccc3n2)c(C)c1 | inconclusive: 29.1 µM [inhibitor, single point]
16 | CC(C)Nc1nc(NC(C)(C)C)nc(Oc2ccc(=O)n(C)n2)n1 | inconclusive: 20.6 µM [activator, partial curve]
17 | Cc1ccc(OCC(=O)NNC(=O)CSc2ncnc3sc(C)c(C)c23)cc1 | inactive
18 | C#CCn1c(=O)cc(C)c2ccccc21 | inactive
19 | CC(Oc1ccccc1F)C(=O)NCCN1CCCCC1 (stereo not given) | inconclusive: 0.461 µM [activator, partial curve, poor fit]
20 | Cn1c(SCC(=O)Nc2ccccc2F)nnc1-c1cccs1 | inconclusive: 18.3 µM [activator, single point]
21 | CN(/C=C/C(=C\C=[N+](C)c1ccccc1)OCCCS(=O)(=O)[O-])c1ccccc1 | inactive
22 | Nc1cc(-c2cccc(Br)c2)nn1Cc1ccccc1 | inconclusive: 23.1 µM [activator, partial curve, poor fit]
23 | Cn1c(=O)c2c(nc(Oc3ccc4ccccc4c3)n2C)n(C)c1=O | active: 4.11 µM
24 | CCC(CC)Nc1ccc(C(CC(N)=O)NC(=O)c2ccccc2)cc1[N+](=O)[O-] (stereo not given) | inconclusive: 0.259 µM [inhibitor, partial curve, poor fit]

Row | Compound | Potency
25 | CC1=Nc2ccccc2/C1=C/c1c(N)n2c(S(=O)(=O)C(C)C)nsc2nc1=O | inactive
26 | CCCCN1CC(COCc2ccccc2)Oc2ccccc2S1(=O)=O (stereo not given) | inactive
27 | COc1ccc(NS(=O)(=O)c2cccc(C(=O)NNC(=O)c3ccccc3OC)c2)cc1 | inactive
28 | Cc1sc2nc(C(C)C)nc(SCC(=O)N3CCN(C(=O)c4ccco4)CC3)c2c1C | active: 18.4 µM
29 | Cn1c(SCC(=O)c2ccccc2)nnc1-c1cnccn1 | inconclusive: 11.2 µM [activator, partial curve]
30 | COCc1[nH]nc2c1C(c1cc(OC)c(O)c(OC)c1)C(C#N)=C(N)O2 (stereo not given) | active: 18.4 µM
31 | Cc1nc2c(-c3ccc(F)cc3)cnn2c2c1CCC2 | inconclusive: 23.1 µM [activator, partial curve]
32 | CC(Cl)C(=O)NNc1cccc(Cl)n1 (stereo not given) | inactive
33 | CC(C)CN(c1ccccc1)S(=O)(=O)c1nnc(NC(=O)C(C)C)s1 | inactive
34 | CCc1ccc(CNC(=O)CCC(=O)n2ncc3cc(C)ccc32)cc1 | inactive
35 | Nc1ccccc1Nc1nc2ccccc2[nH]1 | inactive
36 | O=C(/C=C/c1ccc(F)cc1)NC(=S)NNC(=O)[C@H]1C[C@@H]1c1ccccc1 | inconclusive: 18.3 µM [activator, single point]
37 | Cc1cc(=O)oc2cc(O)c(N=Nc3ccccc3)cc12 | inconclusive: 29.1 µM [activator, single point]
38 | CC(C)(C)C(=O)Nc1cc2c3c(c1)CC(=O)N3CCC2 | inconclusive: 20.6 µM [activator, single point]
39 | CCCOc1c(OC)cccc1C1CC(=O)Nc2cc(OC)c(OC)c(OC)c21 (stereo not given) | inconclusive: 2.31 µM [activator, full curve]
40 | C=CCN1C2CCCC1CC(NC(=O)Nc1cccc(C(C)=O)c1)C2 (stereo not given) | inconclusive: 1.46 µM [activator, partial curve, poor fit]
41 | CC12CCC(C(=O)N(NC(=O)c3ccccc3O)C1=O)C2(C)C (stereo not given) | inconclusive: 32.6 µM [activator, partial curve, poor fit]
42 | CCc1ccc(NCCC(=O)c2ccc(Br)cc2)cc1 | inactive
43 | Cc1ccc(OCC(=O)NNC(=O)Cc2ccc(S(=O)(=O)N3CCOCC3)s2)cc1 | inactive
44 | O=C(N=Nc1c(O)[nH]c2ccc(F)cc12)C1COc2ccccc2O1 (stereo not given) | inactive
45 | CCCC(=O)N(CCc1ccccc1)Cc1nc2ccccc2c(=O)[nH]1 | inconclusive: 8.2 µM [inhibitor, partial curve, poor fit]
46 | CCOC(=O)c1c(C)[nH]c(C(=O)OCCOc2ccc(Cl)cc2)c1C | inconclusive: 23.1 µM [activator, single point]
47 | COc1ccc(N(CC(=O)NCCc2ccccc2)C(=O)CCC(=O)Nc2ccccn2)cc1 | inactive
48 | CCOC(=O)C1=C(O)/C(=C/c2cc(OC)c(OC)c(OC)c2)SC1=Nc1ccc(OC)cc1 | inconclusive: 18.4 µM [activator, partial curve]

Gathered by group: the compounds so far containing a furan ring, fused or not.
Row | Compound | Potency
3 | COc1ccccc1CCNC(=O)c1ccc(C)o1 | inconclusive: 16.4 µM [activator, partial curve, poor fit]
7 | CCC1S/C(=N/N=C/c2ccco2)N(Cc2ccccc2)C1=O (stereo not given) | inconclusive: 6.51 µM [inhibitor, single point]
28 | Cc1sc2nc(C(C)C)nc(SCC(=O)N3CCN(C(=O)c4ccco4)CC3)c2c1C | active: 18.4 µM

The list goes on.

Row | Compound | Potency
49 | O=C(C1CCCN(Cc2ccccc2)C1)N1CCCCC1 (stereo not given) | inactive
50 | Cc1ccc(CN=c2c([N+](=O)[O-])nn(-c3ccc4c(c3)OCCO4)n2O)cc1 | inconclusive: 2.31 µM [activator, partial curve]
51 | Cc1ccc(N(CC2CO2)S(=O)(=O)c2ccc(C)cc2)cc1 (stereo not given) | inconclusive: 25.9 µM [activator, single point]
52 | NS(=O)(=O)c1ccc(NC(=O)COC(=O)COc2cccc(C(F)(F)F)c2)cc1 | inactive
53 | CCN(CC)CCNC(=S)NC(=O)c1cn(-c2ccccc2)nc1-c1ccc(OC)cc1 | inactive
54 | CCOC(=O)CN1C=C(c2ccc3ccccc3n2)C(C[N+](=O)[O-])c2ccccc21 (stereo not given) | inconclusive: 20.6 µM [activator, single point]
55 | Cc1cccc(NC(=O)c2cc(N3CCOCC3)nc3ccccc23)c1 | inconclusive: 9.2 µM [inhibitor, partial curve]
56 | O=C(N/N=C/c1ccc2c(c1)OCO2)c1cc(-c2ccncc2)nc2ccccc12 | inactive
57 | C=CCn1c(SCC(=O)Nc2ccc(Cl)cn2)nnc1C1CC1 | inconclusive: 8.2 µM [activator, partial curve, poor fit]
58 | Cc1nc2n[nH]c(N)c2c2c1CCCC2 | inconclusive: 25.9 µM [activator, single point]
59 | CN(C)c1ccc(O)c2c1CC1CC3[C@@H](N(C)C)C(=O)C(C(N)=O)=C(O)[C@]3(O)C(=O)C1=C2O (stereo not given in full) | inactive
60 | Cc1ccc(NC(=O)Cn2c(C)csc2=O)cc1 | inconclusive: 14.6 µM [activator, partial curve]
61 | Cc1ccccc1OCC(O)Cn1c(N2CCN(c3ccccc3)CC2)nc2c1c(=O)[nH]c(=O)n2C (stereo not given) | inconclusive: 2.59 µM [inhibitor, partial curve, poor fit]
62 | COc1ccc(C(=O)Cc2nnc(C)s2)cc1 | inconclusive: 16.4 µM [activator, partial curve]
63 | CN(C)c1cccc(NC(=O)NC2(C)CCS(=O)(=O)C2)c1 (stereo not given) | inconclusive: 32.6 µM [activator, partial curve, poor fit]
64 | CCOC(=O)CC1C(=O)NCCN1c1nc2c(C)cccn2c(=O)c1/C=C1\SC(=S)N(CC(C)C)C1=O (stereo not given) | inconclusive: 2.59 µM [inhibitor, full curve]
65 | O=C(c1ccc(Br)o1)N1CCN(c2ccc3nnc(-c4ccccc4)n3n2)CC1 | inconclusive: 25.9 µM [inhibitor, single point]
66 | COc1ccc(-c2nc(C)c(C(C)=O)n2O)cc1[N+](=O)[O-] | inconclusive: 10.3 µM [activator, partial curve, poor fit]
67 | CC(=O)NC(c1cc(F)c2cccnc2c1O)C1CC1 (stereo not given) | inconclusive: 18.3 µM [inhibitor, single point]
68 | Nc1ccc2c(c1)C(=O)c1ccccc1C2=O | inconclusive: 8.2 µM [activator, partial curve]
69 | Cc1ccc(C)c(NC(=O)CCC(=O)N/N=C/c2cc([N+](=O)[O-])ccc2O)c1 | active: 13 µM
70 | O=C(Nc1ccc(S(=O)(=O)Nc2ccccc2)cc1)C1COc2ccccc2O1 (stereo not given) | inconclusive: 16.4 µM [inhibitor, single point]

Among those listed so far, these contain a CF3 group:
Row | Compound | Potency
4 | CC(C)CC(COCc1cccc(Cl)c1)N1CCN(C(=O)c2cccc(C(F)(F)F)c2)CCC1=O (stereo not given) | inactive
52 | NS(=O)(=O)c1ccc(NC(=O)COC(=O)COc2cccc(C(F)(F)F)c2)cc1 | inactive
